PMC5302901
Substitutions are numbered along the chain they refer to. These are yes or no findings as the source states them, for the method shown. In cells and extracts the contact can be indirect. Some entries that bind do so weakly or less than the wild type. Each block holds one molecule with its values, some of them ahead of it.

Chains of the proteins cited; added tags and fusions are not shown. Residues count along the entry.
UniProt P62993: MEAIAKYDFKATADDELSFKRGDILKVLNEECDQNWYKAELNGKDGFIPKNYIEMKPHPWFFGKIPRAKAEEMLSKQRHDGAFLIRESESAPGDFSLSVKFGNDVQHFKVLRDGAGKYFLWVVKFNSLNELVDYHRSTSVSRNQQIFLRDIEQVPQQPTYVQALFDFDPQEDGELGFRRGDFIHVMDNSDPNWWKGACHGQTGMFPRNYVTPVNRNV
UniProt P20273, residues 20-847: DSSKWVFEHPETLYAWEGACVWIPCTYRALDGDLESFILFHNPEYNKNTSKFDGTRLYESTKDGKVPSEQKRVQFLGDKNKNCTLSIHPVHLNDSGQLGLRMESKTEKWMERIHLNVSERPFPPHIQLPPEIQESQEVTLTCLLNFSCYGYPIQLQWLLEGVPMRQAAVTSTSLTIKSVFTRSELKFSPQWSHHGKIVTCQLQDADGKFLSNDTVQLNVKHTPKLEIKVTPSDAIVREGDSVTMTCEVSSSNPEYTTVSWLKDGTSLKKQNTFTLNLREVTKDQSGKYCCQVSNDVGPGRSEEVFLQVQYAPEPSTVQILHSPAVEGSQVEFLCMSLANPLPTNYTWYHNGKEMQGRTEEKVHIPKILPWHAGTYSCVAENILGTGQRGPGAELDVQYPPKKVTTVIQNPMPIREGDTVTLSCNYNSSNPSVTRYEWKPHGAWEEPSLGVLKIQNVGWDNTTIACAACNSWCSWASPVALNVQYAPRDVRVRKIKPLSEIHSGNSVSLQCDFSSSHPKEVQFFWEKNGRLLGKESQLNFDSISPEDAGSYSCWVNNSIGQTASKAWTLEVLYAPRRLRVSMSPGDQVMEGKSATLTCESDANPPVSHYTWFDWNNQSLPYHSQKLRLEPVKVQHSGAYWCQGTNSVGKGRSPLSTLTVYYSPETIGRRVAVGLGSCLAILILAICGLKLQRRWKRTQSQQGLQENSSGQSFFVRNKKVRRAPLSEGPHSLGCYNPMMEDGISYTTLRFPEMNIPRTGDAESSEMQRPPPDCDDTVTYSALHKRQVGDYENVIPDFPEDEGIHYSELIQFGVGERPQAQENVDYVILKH
UniProt Q07883: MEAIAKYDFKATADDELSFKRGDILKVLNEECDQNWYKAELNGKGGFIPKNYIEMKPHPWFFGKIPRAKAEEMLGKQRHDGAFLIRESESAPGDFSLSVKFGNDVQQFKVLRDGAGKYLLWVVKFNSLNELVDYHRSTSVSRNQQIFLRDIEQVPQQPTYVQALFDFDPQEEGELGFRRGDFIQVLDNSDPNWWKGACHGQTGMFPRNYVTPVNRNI

Tests used:
[1] = biological target: Grb2 of normal human peripheral B cells (human (endogenous in peripheral B cells)) (UniProt P62993); experiment: co-IP; freshly isolated normal human B cells, with or without 5 ug/ml F(ab')2 anti-human IgM; 1% NP-40 lysate; IP of CD22, Grb2 or PMCA, blots of all three
[2] = biological target: Grb2 of normal human peripheral B cells (human (endogenous in peripheral B cells)) (UniProt P62993); experiment: condition: only without BCR activation (no anti-human IgM); co-IP; freshly isolated normal human B cells without BCR stimulation; IP of CD22, Grb2 or PMCA, blots of all three
[3] = biological target: CD22 of normal human peripheral B cells (human (endogenous in peripheral B cells)) (UniProt P20273); experiment: co-IP; freshly isolated normal human B cells, with or without 5 ug/ml F(ab')2 anti-human IgM; 1% NP-40 lysate; IP of CD22, Grb2 or PMCA, blots of all three
[4] = biological target: Grb2 of DT40 cells (chicken (endogenous in DT40)) (UniProt Q07883); experiment: co-IP; normal DT40 cells transfected with CD22-WT or mutants, stimulated with 5 ug/ml F(ab')2 IgM for 2.5 min; IP of Grb2, blots of CD22 and PMCA

binding [1]: binds
binding [2]: no binding
Molecule: CD22 of normal human peripheral B cells (from UniProt P20273 20-847) (receptor)

binding [3]: binds
Molecule: Grb2 of normal human peripheral B cells (from UniProt P62993 1-217)

binding [4]: binds
B1: mouse CD22-WT (receptor, UniProt P35329-1 22-868)
chain: SANDWTVDHPQTLFAWEGACIRIPCKYKTPLPKARLDNILLFQNYEFDKATKKFTGTVLYNATKTEKDPESELYLSKQGRVTFLGNRIDNCTLKIHPIRANDSGNLGLRMTAGTERWMEPIHLNVSEKPFQPYIQMPSEIRESQSVTLTCGLNFSCFGYDILLKWFLEDSEITSITSSVTSITSSVTSSIKNVYTESKLTFQPKWTDHGKSVKCQVQHSSKVLSERTVRLDVKYTPKLEIKVNPTEVEKNNSVTMTCRVNSSNPKLRTVAVSWFKDGRPLEDQELEQEQQMSKLILHSVTKDMRGKYRCQASNDIGPGESEEVELTVHYAPEPSRVHIYPSPAEEGQSVELICESLASPSATNYTWYHNRKPIPGDTQEKLRIPKVSPWHAGNYSCLAENRLGHGKIDQEAKLDVHYAPKAVTTVIQSFTPILEGDSVTLVCRYNSSNPDVTSYRWNPQGSGSVLKPGVLRIQKVTWDSMPVSCAACNHKCSWALPVILNVHYAPRDVKVLKVSPASEIRAGQRVLLQCDFAESNPAEVRFFWKKNGSLVQEGRYLSFGSVSPEDSGNYNCMVNNSIGETLSQAWNLQVLYAPRRLRVSISPGDHVMEGKKATLSCESDANPPISQYTWFDSSGQDLHSSGQKLRLEPLEVQHTGSYRCKGTNGIGTGESPPSTLTVYYSPETIGKRVALGLGFCLTICILAIWGMKIQKKWKQNRSQQGLQENSSGQSFFVRNKKARRTPLSEGPQSQGCYNPAMDDTVSYAILRFPESDTHNTGDAGTPATQAPPPNNSDSVTYSVIQKRPMGDYENVNPSCPEDESIHYSELVQFGAGKRPQAKEDVDYVTLKH

binding [4]: binds
B2: mouse CD22-F5/6 (receptor, UniProt P35329-1 22-868)
chain: B1 chain with Y822F, Y842F

binding [4]: binds
B3: mouse CD22-F1/2/5/6 (receptor, UniProt P35329-1 22-868)
chain: B1 chain with Y752F, Y762F, Y822F, Y842F
